PubChem BioAssay AID1259254 | NCATS | 2017
The whole screen tested about 59,000 reagents; shown is a part drawn at random. About 1,550 of them (2.6%) count as active. 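G2 share is only a proxy for re-replication; each gene was hit by three separate siRNAs, and active genes were retested.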 Unmarked entries are inactive. The numbers tell different reagents against one gene apart. Not all columns of the deposit are shown. Reagent sequences are not shown. Not given: the amount of reagent.

- Aim: 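Gene knock-downs that lead to re-replication, shown by excess G2 DNA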 (primary screen)
- Cells: human HCT116 colorectal cancer cells
- Knock-down reagent: single siRNA against human genes
- Duration: 3 days
- Detection: 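Imaged Hoechst DNA stain sorts each cell into a cycle phase by DNA amount; per plate, G2 fraction set to 0% for non-targeting and 100% for GMNN siRNA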
- Reading the numbers: G2 robust z-score and G2 cells, % of GMNN control: higher = more G2 cells, more excess DNA replication
- Active means: 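An siRNA counts as active if its G2 robust z-score lies at least 5 MADs above the screen median; here such calls match roughly 38% of GMNN control or more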

no.	Target gene	reagent no.	G2 robust z-score	G2 cells, % of GMNN control
1	ALYREF (Aly/REF export factor)	1	-0.461	-0.278
2	ALYREF (Aly/REF export factor)	2	1.57	14
3	ALYREF (Aly/REF export factor)	3	0.249	4.72
4	SNHG29 (small nucleolar RNA host gene 29)	1	0.0755	3.5
5	SNHG29 (small nucleolar RNA host gene 29)	2	1.69	14.8
6	SNHG29 (small nucleolar RNA host gene 29)	3	-1.07	-4.54
7	RCOR3 (REST corepressor 3)	1	0.644	7.5
8	RCOR3 (REST corepressor 3)	2	1.25	11.8
9	RCOR3 (REST corepressor 3)	3	-0.823	-2.83
10	C6orf62 (chromosome 6 open reading frame 62)	1	0.247	4.71
11	C6orf62 (chromosome 6 open reading frame 62)	2	-0.983	-3.95
12	C6orf62 (chromosome 6 open reading frame 62)	3	-0.657	-1.66
13	XKR7 (XK related 7)	1	-0.776	-2.49
14	XKR7 (XK related 7)	2	2.45	20.2
15	XKR7 (XK related 7)	3	-0.579	-1.11
16	MAPK9 (mitogen-activated protein kinase 9)	1	-1.82	-9.87
17	MAPK9 (mitogen-activated protein kinase 9)	2	-1.26	-5.88
18	MAPK9 (mitogen-activated protein kinase 9)	3	-0.73	-2.17

Quoted from the listing for reference:
no.	Target gene	reagent no.	G2 robust z-score	G2 cells, % of GMNN control
5	SNHG29 (small nucleolar RNA host gene 29)	2	1.69	14.8
6	SNHG29 (small nucleolar RNA host gene 29)	3	-1.07	-4.54

Additional records follow:
no.	Target gene	reagent no.	G2 robust z-score	G2 cells, % of GMNN control
19	STEEP1 (STING1 ER exit protein 1)	1	-0.858	-3.07
20	STEEP1 (STING1 ER exit protein 1)	2	1.52	13.7
21	STEEP1 (STING1 ER exit protein 1)	3	0.294	5.04
22	PPIL2 (peptidylprolyl isomerase like 2)	1	-1.19	-5.4
23	PPIL2 (peptidylprolyl isomerase like 2)	2	0.146	3.99
24	PPIL2 (peptidylprolyl isomerase like 2)	3	-0.377	0.317
25	TAS2R5 (taste 2 receptor member 5)	1	1.44	13.1
26	TAS2R5 (taste 2 receptor member 5)	2	-0.717	-2.08
27	TAS2R5 (taste 2 receptor member 5)	3	2.85	23
28	SLC25A17	1	-0.837	-2.92
29	SLC25A17	2	-0.799	-2.66
30	SLC25A17	3	-1.23	-5.67
